Measured values taken from US20110003888A1, “HOPS EXTRACTION METHODS AND MIXTURES” (Bioactives, Inc., priority 2007, published 2011).

Experiment: in vitro
Conditions: human, Caco-2
Protocol: To test the permeability of xanthohumol across Caco-2 cell monolayers, Caco-2 cell monolayers were grown to confluence on collagen-coated, microporous, polycarbonate membranes in 12-well Costar Transwell® plates. Details of the plates and their certification are shown below in Table 3. The test article was also the aqueous xanthohumol formulation, and the dosing concentration was 2 μM in the assay buffer (HBSSg) as in the previous example. Cell monolayers were dosed on the apical side (A-to-B) or basolateral side (B-to-A) and incubated at 37° C. with 5% CO2 in a humidified incubator. Samples were taken from the donor chamber at 120 minutes, and samples from the receiver chamber were collected at 60 and 120 minutes. Each determination was performed in duplicate. Lucifer yellow permeability was also measured for each monolayer after being subjected to the test article to ensure no damage was inflicted to the cell monolayers during the permeability experiment. All samples were assayed for Xanthohumol by LC/MS/MS using electrospray ionization. The apparent permeability (Papp), and percent recovery were calculated as described above.

Papp: 0.3 ×10⁻⁶ cm/s
Compound: CC(C)NCC(O)COc1ccc(CC(N)=O)cc1 (stereo not shown) [Atenolol]
